Assay results from article PMC7819943, “Rice protein-binding microarrays: a tool to detect cis-acting elements near promoter regions in rice”.
Some of the results follow.

target: T1, OsSMF1 (Oryza sativa, UniProt Q6ZLB0 1-436); assay: protein-binding microarray (RPBM); PBS, 2% BSA, 51.3 ng/ul salmon testes DNA, 50 uM zinc acetate, 200 nM TF, 25 C, 1 h; high values mean tight binding; conditions: protein: recombinant; tags: N-terminal polyhistidine and DsRed monomer fusion (pET32a); chain copies: 2; label: CyDye5-dUTP incorporated in the synthesized complementary strand; 3' TTTTT single-stranded linker to array surface; dsDNA, one strand shown
T1 sequence: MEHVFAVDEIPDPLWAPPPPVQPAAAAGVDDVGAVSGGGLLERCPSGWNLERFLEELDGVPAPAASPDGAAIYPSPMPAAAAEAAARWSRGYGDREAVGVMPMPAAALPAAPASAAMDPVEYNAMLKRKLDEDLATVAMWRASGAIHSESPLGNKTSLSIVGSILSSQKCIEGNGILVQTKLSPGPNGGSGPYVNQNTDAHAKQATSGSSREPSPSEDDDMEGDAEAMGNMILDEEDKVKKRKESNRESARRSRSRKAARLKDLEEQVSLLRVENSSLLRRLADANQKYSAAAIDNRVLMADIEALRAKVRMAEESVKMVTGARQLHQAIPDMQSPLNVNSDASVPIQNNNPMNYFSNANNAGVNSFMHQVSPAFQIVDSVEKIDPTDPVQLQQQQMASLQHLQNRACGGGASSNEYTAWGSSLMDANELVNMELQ
Outline: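 For the binding signal, per-feature fluorescence intensity was read in arbitrary units on an Axon 4000B scanner. Before scanning, a 2% BSA-blocked custom Agilent array made double-stranded with Cy5-dUTP was washed after 1 h at 25 °C with 200 nM protein and 50 µM zinc acetate. The proteins were Ni–NTA-purified transcription factors with N-terminal polyhistidine and DsRed fusions, expressed in E. coli BL21-CodonPlus.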

| Sequence | binding signal |
| --- | --- |
| TTGCTGGTGGTATGAGGAATTTGTTGTCGACACAATCGTTCGGAGTCACCTAGTGCAG | 3430 fluorescence intensity (a.u.) |
| CACTATAACTGCCATGCCACCTGTGCATATTATGTTGTCGCGGAGTCACCTAGTGCAG | 5710 fluorescence intensity (a.u.) |
| ACCAAACCAATCCCCTGCGTCCACGTGTACATCTTAGTGCCGGAGTCACCTAGTGCAG | 12800 fluorescence intensity (a.u.) |
| CCCTTTCCCCGCCGCCGCCATCACGTGGTCCTTGAGGAACCGGAGTCACCTAGTGCAG | 3170 fluorescence intensity (a.u.) |
| AACAAGGCCGAGCTCTGCTCGCGTGGCATCTAACGTGCTCCGGAGTCACCTAGTGCAG | 6350 fluorescence intensity (a.u.) |
| AAATACTACTAGTACAAGATAATTGAGCAAAATAAATACCCGGAGTCACCTAGTGCAG | 37000 fluorescence intensity (a.u.) |
| TCAGGGCATTCCTAACCCAATGACTAGGATGGTGTCCATACGGAGTCACCTAGTGCAG | 6580 fluorescence intensity (a.u.) |
| GAGATCGTTATCCTTTACATGTCATTTGTTAGTTGGCATTCGGAGTCACCTAGTGCAG | 5250 fluorescence intensity (a.u.) |
| ATTGGAGCCTGACCTGAGTCACGTTGGATCCTGAACCTGACGGAGTCACCTAGTGCAG | 4500 fluorescence intensity (a.u.) |
| CAAGGGTCATGTCCGCCTGTGAAAATCAGACCTCCACGTCCGGAGTCACCTAGTGCAG | 3380 fluorescence intensity (a.u.) |
| ATTTATTTTAACTTATATCCATACTTTAGAATCACCCATACGGAGTCACCTAGTGCAG | 28500 fluorescence intensity (a.u.) |
| GCTATACACTGCTGGATGCCTCTTGCTGTGTACGTGTAGCCGGAGTCACCTAGTGCAG | 3810 fluorescence intensity (a.u.) |
| ATTCCAATTCCAGCTCAATGCTGCACGGAATCTCCTCTTCCGGAGTCACCTAGTGCAG | 4140 fluorescence intensity (a.u.) |
| GCACCCGCGCGTGCAGAACCCATGGATGGGGTCACCACCACGGAGTCACCTAGTGCAG | 8340 fluorescence intensity (a.u.) |
| ACCGCCTCACTCCATCCACCGCACCACCACCACTACCCTGCGGAGTCACCTAGTGCAG | 3930 fluorescence intensity (a.u.) |
| GCGTACCCCGTGGTCCCCGTGGATTCATGGACCGTGGTCACGGAGTCACCTAGTGCAG | 3820 fluorescence intensity (a.u.) |
| TTCTACTCTCCCACTCCTCTCTAACCACTGTACTATATACCGGAGTCACCTAGTGCAG | 9980 fluorescence intensity (a.u.) |
| CATGTGCATTGTGTCAAAGGCTGATCTGTTTTCTTTTCCTCGGAGTCACCTAGTGCAG | 3210 fluorescence intensity (a.u.) |
| CCAATCACGTCCCACCGAATCGCCACGTCAGCTCTGGTCCCGGAGTCACCTAGTGCAG | 26700 fluorescence intensity (a.u.) |
| TTGAACCCCGTGTACATCAACAAACCACGTGTCCATCAAGCGGAGTCACCTAGTGCAG | 6220 fluorescence intensity (a.u.) |
| ATCGATCGATAGCCCCGTGACGTCAAACGTCGTTCGTTGTCGGAGTCACCTAGTGCAG | 18200 fluorescence intensity (a.u.) |
| CACAAGAGCAGACGACGGCATTGCGATCCCAAGCAGCAGCCGGAGTCACCTAGTGCAG | 24600 fluorescence intensity (a.u.) |
| GCGTTGAGCGTGGTTGATGGGCCTTCTTTACGTGTATTTTCGGAGTCACCTAGTGCAG | 3780 fluorescence intensity (a.u.) |
| ATCTGGAGTCGTCGTCGTCGTCGTCGTCGACTTGTCATCCCGGAGTCACCTAGTGCAG | 3860 fluorescence intensity (a.u.) |
| CTCAATGCTATCCGATTCTACGTGTCGGGGCCAACCAACCCGGAGTCACCTAGTGCAG | 3600 fluorescence intensity (a.u.) |
| CGTCGAACCGGCGGCGGCCCGCGCCACCCACCCTACCCGCCGGAGTCACCTAGTGCAG | 49100 fluorescence intensity (a.u.) |
| TAGCCATATGCTAGTGCCCTACCTGACGTGTATGTATCGCCGGAGTCACCTAGTGCAG | 8980 fluorescence intensity (a.u.) |

Quoted from the listing:
binding signal, ATTGGAGCCTGACCTGAGTCACGTTGGATCCTGAACCTGACGGAGTCACCTAGTGCAG is entered as 4500 fluorescence intensity (a.u.)
binding signal, ATCTGGAGTCGTCGTCGTCGTCGTCGTCGACTTGTCATCCCGGAGTCACCTAGTGCAG is entered as 3860 fluorescence intensity (a.u.)

Two consecutive entries already listed, for reference:

| Sequence | binding signal |
| --- | --- |
| AAATACTACTAGTACAAGATAATTGAGCAAAATAAATACCCGGAGTCACCTAGTGCAG | 37000 fluorescence intensity (a.u.) |
| TCAGGGCATTCCTAACCCAATGACTAGGATGGTGTCCATACGGAGTCACCTAGTGCAG | 6580 fluorescence intensity (a.u.) |

Carrying on.

| Sequence | binding signal |
| --- | --- |
| CCCATTTCCAATAACACTATCTGATAGGAGTAGTCAAACACGGAGTCACCTAGTGCAG | 3310 fluorescence intensity (a.u.) |
| GCTTTTCTTGTATTCCATCCCACGTAGTTTTCCTGTATTTCGGAGTCACCTAGTGCAG | 3690 fluorescence intensity (a.u.) |
| GTTCCCACCAACCATTTTCCTACGTGGAGGATAGCAACAACGGAGTCACCTAGTGCAG | 4650 fluorescence intensity (a.u.) |
| CTTCCTCTCTCTCTTCGTCAACACCACTCACTAGCTACTGCGGAGTCACCTAGTGCAG | 3300 fluorescence intensity (a.u.) |
| GAGCCGTGCGCATCTGCCGTTAGAATTCGGAGCGTCAGACCGGAGTCACCTAGTGCAG | 3640 fluorescence intensity (a.u.) |
| ACCACCATTAATATTTCTTGCGCTAGCTGCTTGCGATCTGCGGAGTCACCTAGTGCAG | 10100 fluorescence intensity (a.u.) |
| CTTTCAGTTACGGGCCCCACCTGTCATTCTCTCACCTCTCCGGAGTCACCTAGTGCAG | 3290 fluorescence intensity (a.u.) |
| TTGCAGTGCCACCTCACCGCCACGTAGGATGATGACTAAGCGGAGTCACCTAGTGCAG | 25800 fluorescence intensity (a.u.) |
| TTTGTGTGGAATTTTGTACAACTCATCGCCATCAGCTTGCCGGAGTCACCTAGTGCAG | 3790 fluorescence intensity (a.u.) |
| GCCGCCCGCGCGCGACCGCGTGACGTCGCAGCCGCACCGACGGAGTCACCTAGTGCAG | 6080 fluorescence intensity (a.u.) |
| GAACGCAAGGGACGACACGACGCCATCGCCATGGCCATCGCGGAGTCACCTAGTGCAG | 37600 fluorescence intensity (a.u.) |
| TTATTCGGTGAATAATATAATGGAGTAAGTATACGTACACCGGAGTCACCTAGTGCAG | 5700 fluorescence intensity (a.u.) |
| CCACGCGGACACTGACACGTCATCATCGTGTTCGTTTCCTCGGAGTCACCTAGTGCAG | 39300 fluorescence intensity (a.u.) |
| TCGAGGAGTGGATGGACGGATGGGTGGGTCATCACTGGTCCGGAGTCACCTAGTGCAG | 3480 fluorescence intensity (a.u.) |
| CCCCTCTGTTTCAGGTTATAAGATGAGTTGGCTTTGATCACGGAGTCACCTAGTGCAG | 3390 fluorescence intensity (a.u.) |
| GACTAATGAGGTACTTGTCAATTGTCATCAGATGTGCCAGCGGAGTCACCTAGTGCAG | 3450 fluorescence intensity (a.u.) |
| TCCACGCCCCGTCCGCCTCGCTCTCACCCTGCCCCGTCCGCGGAGTCACCTAGTGCAG | 3240 fluorescence intensity (a.u.) |
| GCCGCTCATGACGTTCATCTTCGGCGACGTCATCAACGCCCGGAGTCACCTAGTGCAG | 8990 fluorescence intensity (a.u.) |
| ATTTCATAAAACTGCACATTCTGGGGTTCAAGTTGCAGAACGGAGTCACCTAGTGCAG | 3170 fluorescence intensity (a.u.) |
| ACGTATACGTGACACCCTCTCTCGCACGATCAGTACTGTACGGAGTCACCTAGTGCAG | 3480 fluorescence intensity (a.u.) |
| CTCTCTCCCTCGATACACGTGCCTTTGAGTACCTTTTAGTCGGAGTCACCTAGTGCAG | 3540 fluorescence intensity (a.u.) |
| GCCGCCATCATCCACCGGAGGCGCCGCCGGGCGCACGCGGCGGAGTCACCTAGTGCAG | 3460 fluorescence intensity (a.u.) |
| CATGTCAGTGTCACTGACCATCTTAGCTAGCAGGACCGTGCGGAGTCACCTAGTGCAG | 3660 fluorescence intensity (a.u.) |
| GGAGGAAGGCTACCCTGTTGTCGACTACGAGTCAGACCTTCGGAGTCACCTAGTGCAG | 3980 fluorescence intensity (a.u.) |
| GGATCAACGTGACATTAGATTTGAATCTAGCTAGCTGGAACGGAGTCACCTAGTGCAG | 20100 fluorescence intensity (a.u.) |
| CCGTACTTATCTACTTATCATCTACGTGTACCGTGTTTATCGGAGTCACCTAGTGCAG | 10200 fluorescence intensity (a.u.) |
| GCGAAGGAAGGAAAAGAAAGCACCGTATGACGTGGAAGGACGGAGTCACCTAGTGCAG | 11800 fluorescence intensity (a.u.) |
